For at least one compound, name, drawing or mass did not settle the structure.
Tested on: BALB/c mice
Assay: Primary antibody response to Ars-KLH with AICAR or 6-MPR, serum ELISA (Example 10)
Format: in vivo
Conditions: 3 mg i.p. with Ars-KLH 100 μg; serum 19 days after immunization; Ars-KLH+saline control 0.04
Description: BALB/c micereceived an intraperitoneal injection of Ars-KLH (100 μg), Ars-KLH+AICAR (3 mg) or Ars-KLH+6-MPR (3 mg). 19 days after Immunization, mice were bled and serum levels of antigen specific antibodies were determined by ELISA according to standard procedure using isotype-specific rat Mab.

OC[C@H]1O[C@@H](n2cnc3c(S)ncnc32)[C@H](O)[C@@H]1O [6-MPR, 6-mercaptopurine riboside]
Ars specific antibodies concentrations: 0.509 t 0.473 μg/ml

Source: patent US20050002943A1, “Amp-kinase agonists or adenosine pro-drugs as immuno-stimulating agents” (priority 2001, published 2005)
